Source: paper PMC10163288
The list shows a part of the results.

B1: il10ra_site1_normal_mot_b26a303360aa2756ef5b79665ce52f45_0001_000000179_0001_1_11_H_._HHH_b2_07862_af2_0001_0000100002_0000001_0_af2pred_0001 (protein)
chain: SSSSSALEEIVRLIREALELLAEGNEEEAEEVLEEAEKLARENNNPLAEHIIRFLLRSIGSSSSS
B2: il10ra_site1_normal_mot_HHH_b2_03425_000000200_0001_22_39_H_._HHH_b1_08292_0001_0000100014_0000001_0 (protein)
chain: SSSSSSEEEERVERLLERLEEITDAEEFYEVVREIIELISELGNEELLRLLMRILRRFFSSSSSS
B3: il10ra_site1_sap_14_mot_HHH_b2_00099_af2_000000010_0001_1_19_H_._ems_3hC_453_0002_0001_0000400024_0000002_0_0001 (protein)
chain: SSSSSDEEEEVEKLLEEAEKIEDHEERLRVLLEALRLAFRLQNPELLQKVWEVFRRLAGSSSSSS
B4: il10ra_site1_normal_mot_HHH_b2_07569_000000265_0001_38_56_H_._HHH_b1_06669_0001_0000100001_0000001_0 (protein)
chain: SSSSELEKEIEELLEELKRLVEEGDVREASELALEIVQLIFELGDEELVQEVWELAKLAFERSSS
B5: il10ra_site1_sap_22_mot_HHH_b1_07806_000000011_0001_1_18_H_._HHH_b2_05025_af2_0001_0000400012_0000001_0_0001_af2pred_0001 (protein)
chain: SSSSDMEEKLKLALKFIEFLIEQGDEEAARRLIRAAEDIARRLGNEEILERLEELLERLNSSSSS
B6: il10ra_site1_sap_16_mot_HHH_b2_07873_af2_000000172_0001_1_19_H_._HHH_b1_08172_af2_0001_0000100006_0000001_1_0001 (protein)
chain: SSSSNEVLRIAEEAVELLHELLKRGDEEEAEEVLREARELLEELGNQLAVESLEYMFRSDSSSSS
B7: il10ra_site1_sap_23_mot_HHH_b2_06571_000000054_0001_42_56_H_._HHH_b1_02406_0001_0000500066_0000002_0_0001 (protein)
chain: SSSSDEEREAFELMVEAYLLANQGDPEEAREVLEEAEEVAERGNDRALVLAIEINLERLESSSSS
B8: il10ra_site1_sap_25_mot_HHH_b2_02315_000000136_0001_19_35_H_._HHH_b1_00431_0001_0000100007_0000002_0_0001 (protein)
chain: SSSSSDEEEEEVERLLEEAKHIEDRERAIELLLRASRLAWELGNKELARAVDQLAIKLFQSSSSS
B9: il10ra_site1_sap_16_mot_HHH_b2_02736_000000092_0001_22_38_H_._HHH_b2_04483_af2_0001_0000100003_0000002_0_0001_af2pred_0001 (protein)
chain: SSSSSEEEEVLKLVAEALALAQRLGDHETAEELFKLLAEAFATNDPKLFEEAEELAREILGSSSS
B10: il10ra_site1_normal_mot_8756ee2cf497b5429c717dfc0c0bcfd6_0001_000000186_0001_1_13_H_._HHH_b1_06748_af2_0001_0000300014_0000001_0 (protein)
chain: SSSSDELSEEVIELLREAAELHRNGNPEEARKVLEEAEELAEENNNDVLLAQIEYLQRLLDSSSS
B11: il10ra_site1_normal_mot_HHH_b1_08446_000000041_0001_1_19_H_._HHH_b2_00614_0001_0000100009_0000001_1 (protein)
chain: SSSSSDAEEEVEELLEEAKRVDDPDERYELLKEAIELASEANDQELFRLIIEVLRELLHSSSSSS
B12: il10ra_site1_sap_26_mot_HHH_b1_01707_000000240_0001_1_17_H_._HHH_b2_07405_0001_0000500060_0000001_0_0001 (protein)
chain: SSSSDQEFARLMMEALHLAFQLRDPETLRELWELYRRYAEEGDPRYEEALEELLEELRERSSSSS
B13: il10ra_site1_sap_23_mot_HHH_b1_03763_000000278_0001_22_38_H_._HHH_b1_03304_0001_0000100006_0000001_0_0001 (protein)
chain: SSSSDEASREIYELLREAAELDHEGDKEEARRLIEEAQELAEEANDRVLLAVLEVLLKQLRSSSS
B14: il10ra_site1_sap_22_mot_HHH_b2_00943_af2_000000149_0001_1_17_H_._HHH_b2_03328_0001_0000400021_0000001_0_0001 (protein)
chain: SKEEKLEELAEEAGVPPEELKVILRAAEIVAGGDPRRIARLVEIQLRMAGNFSPELRELLEELIR
B15: il10ra_site1_sap_17_mot_2fa031a62b9321f410fa37cb4b35ac9e_0001_af2_000000160_0001_1_14_H_._HHH_b2_02757_af2_0001_0000100001_0000002_0_0001_af2pred_0001 (protein)
chain: SSSSSEEQEEIRKLLEEALKLAREGNPEEAREVLEEALRLAEEAGDTTLAFQVRFLLELLSSSSS
B16: il10ra_site1_sap_14_mot_HHH_b1_02136_af2_000000018_0001_38_52_H_._HHH_b2_04267_0001_0000400040_0000001_0_0001 (protein)
chain: SSSSDARFLVRQAFKAARLVIEQGDEERAEVALRNLESLARINNDEEAEKLLKELEELLGSSSSS
B17: il10ra_site1_normal_mot_HHH_b2_01235_000000294_0001_1_18_H_._HHH_b1_06902_0001_0000600047_0000001_0 (protein)
chain: SSSSSESQELYELLRRISELDHEGNKEEARELIEELQKLIEELNNLNARAVLEALERLVNSSSSS
B18: il10ra_site1_normal_mot_9368472692dc9678e81f248f6367350b_0001_000000260_0001_20_35_H_._HHH_b2_02427_0001_0000200010_0000001_0 (protein)
chain: SSSSSDREEVLELSLEALRLALRGNPEEARKVLEEAAELAEELGDERLLRVIESLLEVLNSSSSS
B19: il10ra_site1_sap_19_mot_HHH_b1_00814_af2_000000078_0001_43_57_H_._HHH_b2_02041_0001_0000100001_0000002_0_0001 (protein)
chain: SSSSSSEAEQHARALLWFARLVSNPEARRIMLELAEEAAEEAGDEELLEEIEEELRKVGSSSSSS
B20: il10ra_site1_normal_mot_HHH_b2_02386_000000054_0001_1_20_H_._HHH_b2_05043_0001_0000500092_0000003_0 (protein)
chain: SSSSTDESYELLRRAIEEVIRLYKEGNPEEAKKVVEEVFRELEELGNPLAARQLEFLRRLLSSSS
B21: il10ra_site1_sap_13_mot_HHH_b2_07784_af2_000000103_0001_19_36_H_._HHH_b2_04412_af2_0001_0000600023_0000001_1_0001 (protein)
chain: SSSSDEEEEELKELLREAKELIEEGNPQEAIEVLRRAVRLALRLGDEEALQEIWELVHRLKSSSS
B22: il10ra_site1_sap_19_mot_HHH_b1_07211_af2_000000161_0001_24_40_H_._HHH_b2_03175_af2_0001_0000300016_0000001_0_0001 (protein)
chain: SSSSSDASRRVYELLRRAAEADHEGDKEKAEEILEEAEELAEEGNNRILAWLVEWLLRRISSSSS
B23: il10ra_site1_sap_17_mot_HHH_b2_03425_000000200_0001_22_39_H_._HHH_b2_08248_0001_0000600033_0000001_0_0001_af2pred_0001 (protein)
chain: SSSSSSEEEAERAVRFLLEAAKQIEDEEVVKLALYDAKAVAEDLNDEELRELVEKVEEELSSSSS
B24: il10ra_site1_sap_26_mot_HHH_b2_05111_af2_000000002_0001_42_56_H_._HHH_b1_05767_af2_0001_0000300004_0000002_0_0001 (protein)
chain: SSSSSDITEEIMELIREFMELLKRGDEEEAQEVVERAEELARESGNRLLLWQIEWLKRLTSSSSS

Target: il10ra, Q13651
Experiment: yeast display titration

Apparent Kd, inactive:
B1 no binding seen
B2 no binding seen
B3 > 38.5 nM
B4 no binding seen
B5 no binding seen
B6 no binding seen
B7 no binding seen
B8 no binding seen
B9 no binding seen
B10 no binding seen
B11 no binding seen
B12 no binding seen
B13 no binding seen
B14 no binding seen
B15 no binding seen
B16 no binding seen
B17 no binding seen
B18 no binding seen
B19 no binding seen
B20 no binding seen
B21 no binding seen
B22 no binding seen
B23 no binding seen
B24 no binding seen

Retrieved one by one from above, 2 records:
Apparent Kd, inactive:
B12 no binding seen
B5 no binding seen
